# Data as given in US7718353B2, “Proteins, sensors, and methods of characterizing analytes using the same” (University of Maryland Baltimore County, priority 2003, dated 2010).
# B1: Ru-GlnBP-Acr: S179C GlnBP labeled at the cysteine with acrylodan and at the N-terminal with ruthenium bis-(2,2′-bipyridyl)-1,10-phenanthroline-9-isothiocyanate (protein, UniProt P0AEQ3 23-248, looked up, variant S179C)
# Glutamine-binding periplasmic …: ADKKLVVATDTAFVPFEFKQGDKYVGFDVDLWAAIAKELKLDYELKPMDFSGIIPALQTKNVDLALAGITITDERKKAIDFSDGYYKSGLLVMVKANNNDVKSVKDLDGKVVAVKSGTGSVDYAKANIKTKDLRQFPNIDNAYMELGTNRADAVLHDTPNILYFIKTAGNGQFKAVGDCLEAQQYGIAFPKGSDELRDKVNGALKTLRENGTYNEIYKKWFGTEPK
# modifications: acrylodan; N-terminal ruthenium complex label
# notes: S179C GlnBP labeled at the cysteine with acrylodan and at the N-terminal with ruthenium bis-(2,2′-bipyridyl)-1,10-phenanthroline-9-isothiocyanate
# B2: GlnBP-Acr: S179C variant of E. coli glutamine-binding protein labeled with acrylodan at cysteine 179 (protein, UniProt P0AEQ3 23-248, looked up, variant S179C)
# Glutamine-binding periplasmic …: B1 Glutamine-binding periplasmic …
# modifications: acrylodan label at C179
# Columns and labels:
# [1] = Frequency-domain intensity decay and modulation of Ru-GlnBP-Acr in glutamine; settings: for fAcr / fRu: fractional intensity
# [2] = Detection limits of GlnBP sensor (Signal/Noise=3); settings: for LDL/UDL / Lower Detection Limit (LDL) / Upper Detection Limit (UDL): dye acrylodan
molecule,measurement,setting,value
B1,fAcr,[1]; glutamine 0.0 μM,0.510
same,fRu,[1]; glutamine 0.0 μM,0.490
same,fAcr,[1]; glutamine 0.1 μM,0.476
same,fRu,[1]; glutamine 0.1 μM,0.539
same,fAcr,[1]; glutamine 0.2 μM,0.415
same,fRu,[1]; glutamine 0.2 μM,0.585
same,fAcr,[1]; glutamine 0.4 μM,0.374
same,fRu,[1]; glutamine 0.4 μM,0.626
same,fAcr,[1]; glutamine 0.8 μM,0.347
same,fRu,[1]; glutamine 0.8 μM,0.653
same,fAcr,[1]; glutamine 1.6 μM,0.331
same,fRu,[1]; glutamine 1.6 μM,0.669
same,lifetime of Ru,[1]; practically the same with the binding of glutamine (0-1.6 μM),about 685 ns
B2,lower detection limit of GlnBP relative to that of GBP (times lower),[2]; comparison of Table 5 values,about 10 times
same,LDL/UDL,[2]; protein conc. 0.87 μM,107
same,Lower Detection Limit (LDL),[2]; protein conc. 0.87 μM,0.03 µM
same,Upper Detection Limit (UDL),[2]; protein conc. 0.87 μM,3.2 µM
same,LDL/UDL,[2]; protein conc. 3.54 μM,229
same,Lower Detection Limit (LDL),[2]; protein conc. 3.54 μM,0.07 µM
same,Upper Detection Limit (UDL),[2]; protein conc. 3.54 μM,16 µM
same,lower detection limit,[2]; range over protein conc. 0.87-3.54 μM (Table 5),0.03 to 0.07 µM
